{"source": "patent US20140243210A1", "about": "“PURIFICATION OF IMMUNOGLOBULINS USING AFFINITY CHROMATOGRAPHY AND PEPTIDE LIGANDS” (priority 2005, published 2014)", "key": {"[1]": {"system": "HIgG", "experiment": "Chromatographic separation of HIgG from MEM, column format (A280, ELISA, SDS-PAGE densitometry)", "set-up": "species or system human"}, "[2]": {"system": "HIgG", "experiment": "Adsorption isotherm measurements, Langmuir model", "type": "binding, human", "conditions": "at maximum capacity"}, "[3]": {"conditions": "2-1 (linear salt gradient wash, pH 4 PB elution), PBS, not MeOH swelled (runs HF1, HY2, HV3, YY1)"}, "[4]": {"conditions": "2-1, PBS, MeOH swelled (runs HY1, HV2)"}, "[5]": {"conditions": "2-1, PBS, not MeOH swelled (runs HF1, HY2, HV3, YY1)"}, "[6]": {"conditions": "loaded at pH 7.4, low salt, FIG. 11"}, "[7]": {"conditions": "run HP28, 0.1 meq/g, 1-26 (0.5 M NaCl wash, pH 4 PB elution), PBS, not MeOH swelled"}, "[8]": {"conditions": "run HW2, 0.55 meq/g, 1-26, PBS, not MeOH swelled"}}, "note": "Values joined by “and” are separate entries in the source; they are usually repeats but may differ in a detail not shown here. Equal entries are not always repeated.", "data": [{"substance": "HVHYYW [hexapeptide ligand on Toyopearl resin, 0.1 meq/g]", "values": [{"measurement": "ELISA assay Rec", "setting": "[1]; [3]", "value": 49.11, "unit": "%"}, {"measurement": "ELISA assay Purity", "setting": "[1]; [4]", "value": 89.59, "unit": "%"}, {"measurement": "ELISA assay Rec", "setting": "[1]; [4]", "value": 29.95, "unit": "%"}, {"measurement": "ImageJ Purity", "setting": "[1]; [4]", "value": 84, "unit": "%"}, {"measurement": "ImageJ Rec", "setting": "[1]; [4]", "value": 53, "unit": "%"}, {"measurement": "ELISA assay Purity", "setting": "[1]; [5]", "value": 78.10, "unit": "%"}, {"measurement": "ImageJ Purity", "setting": "[1]; [5]", "value": 65, "unit": "%"}, {"measurement": "ImageJ Rec", "setting": "[1]; [5]", "value": 39, "unit": "%"}]}, {"substance": "HWRGWV [Ac-HWRGWV, acetylated HWRGWV on resin, 0.080 mmol/g]", "values": [{"measurement": "peptide/protein", "setting": "[2]; substitution 0.080 mmol/g", "value": 92, "unit": "mol/mol"}]}, {"substance": "HWRGWV [hexapeptide ligand on Toyopearl AF-amino-650 M resin; 0.1 meq/g unless another substitution is stated]", "values": [{"measurement": "peptide/protein", "setting": "[2]; substitution 0.022 mmol/g", "value": 21, "unit": "mol/mol"}, {"measurement": "peptide/protein", "setting": "[2]; substitution 0.040 mmol/g", "value": 41, "unit": "mol/mol"}, {"measurement": "peptide/protein", "setting": "[2]; substitution 0.080 mmol/g", "value": 91, "unit": "mol/mol"}, {"measurement": "peptide/protein", "setting": "[2]; substitution 0.10 mmol/g", "value": 112, "unit": "mol/mol"}, {"measurement": "peptide/protein", "setting": "[2]; substitution 0.22 mmol/g", "value": 241, "unit": "mol/mol"}, {"measurement": "peptide/protein", "setting": "[2]; substitution 0.55 mmol/g", "value": 600, "unit": "mol/mol"}, {"measurement": "Percentage of HIgG (by 25 kD HIgG band, densitometry)", "setting": "[1]; lane 10: peak 2, pure HIgG injection 5 mg/ml in PBS", "value": 97.2, "unit": "%"}, {"measurement": "HIgG that came off the column with pH 5 PB", "setting": "[1]; [6]", "value": 7, "unit": "%"}, {"measurement": "HIgG that came off the column with pH 6 PB", "setting": "[1]; [6]", "value": 54, "unit": "%"}, {"measurement": "Yield of HIgG (by 25 kD HIgG bands, densitometry)", "setting": "[1]; product peak 2, pH 4 PB elution, MEM + HIgG", "value": "~68% and 68%"}, {"measurement": "ImageJ Purity", "setting": "[1]; [7]", "value": 68, "unit": "%"}, {"measurement": "ImageJ Rec", "setting": "[1]; [7]", "value": 74, "unit": "%"}, {"measurement": "ELISA assay Rec", "setting": "[1]; run HW2, 0.55 meq/g, 1-26 (0.5 M NaCl wash, pH 4 PB elution), PBS, not MeOH swelled", "value": "77% and 80.28%"}, {"measurement": "ELISA assay Purity", "setting": "[1]; [8]", "value": "80% and 76.85%"}, {"measurement": "ImageJ Purity", "setting": "[1]; [8]", "value": 73, "unit": "%"}, {"measurement": "ImageJ Rec", "setting": "[1]; [8]", "value": 73, "unit": "%"}]}, {"substance": "HYFKFD [hexapeptide ligand on Toyopearl resin, 0.1 meq/g]", "values": [{"measurement": "ELISA assay Rec", "setting": "[1]; [3]", "value": "47.7% and 47.71%"}, {"measurement": "ELISA assay Purity", "setting": "[1]; [4]", "value": 75.10, "unit": "%"}, {"measurement": "ELISA assay Rec", "setting": "[1]; [4]", "value": 37.47, "unit": "%"}, {"measurement": "ImageJ Purity", "setting": "[1]; [4]", "value": 82, "unit": "%"}, {"measurement": "ImageJ Rec", "setting": "[1]; [4]", "value": 39, "unit": "%"}, {"measurement": "ELISA assay Purity", "setting": "[1]; [5]", "value": "90% and 90.15%"}, {"measurement": "ImageJ Purity", "setting": "[1]; [5]", "value": 92, "unit": "%"}, {"measurement": "ImageJ Rec", "setting": "[1]; [5]", "value": 60, "unit": "%"}]}, {"substance": "truncation of the subunit GFRKYLHFRRHLL of a multiple antigenic peptide (MAP) (Immunoglobulin binding peptide sequence)", "values": [{"measurement": "ImageJ Purity", "setting": "[1]; [5]", "value": 78, "unit": "%"}, {"measurement": "ImageJ Rec", "setting": "[1]; [5]", "value": 76, "unit": "%"}]}]}
